# Some of the results follow.
# Columns and labels:
# Assay in all cases: glycan array binding signal (z-score within array); higher = stronger binding
# Conditions in all cases: glycan notation: IUPAC condensed, linker removed; mutation: D21K
# [1] = target: Neu5Ac(a2-6)Gal(b1-4)GlcNAc(b1-6)[Gal(b1-3)GlcNAc(b1-3)]Gal(b1-4)Glc
# Procedure, shortened: (§1)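 The binding signal is a Z-score computed within each array. Data were drawn from 3228 arrays in the Consortium for Functional Glycomics database, restricted to those with a known protein sequence. Scores were averaged over arrays of the same protein sequence at different concentrations or buffers, and over linkers, and negative values can be taken as non-binding.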
# [2] = target: Neu5Ac(a2-6)Gal(b1-4)GlcNAc(b1-6)[Gal(b1-3)]GalNAc
# Procedure, shortened: as §1
# [3] = target: Neu5Ac(a2-6)Gal(b1-4)GlcNAc6S
# Procedure, shortened: as §1
# Neu5Ac(a2-6)GalNAc = target: Neu5Ac(a2-6)GalNAc
# Procedure, shortened: as §1
# [4] = target: Neu5Ac(a2-6)GalNAc(b1-4)GlcNAc
# Procedure, shortened: as §1
# [5] = target: Neu5Ac(a2-6)GalNAc(b1-4)GlcNAc6S
# Procedure, shortened: as §1
# [6] = target: Neu5Ac(a2-6)GlcNAc(b1-4)GlcNAc
# Procedure, shortened: as §1
# [7] = target: Neu5Ac(a2-6)GlcNAc(b1-4)GlcNAc(b1-4)GlcNAc
# Procedure, shortened: as §1
# Neu5Ac(a2-8)Neu5Ac = target: Neu5Ac(a2-8)Neu5Ac
# Procedure, shortened: as §1
# [8] = target: Neu5Ac(a2-8)Neu5Ac(a2-3)Gal(b1-3)GalNAc(b1-4)[Neu5Ac(a2-3)]Gal(b1-4)Glc
# Procedure, shortened: as §1
# [9] = target: Neu5Ac(a2-8)Neu5Ac(a2-3)Gal(b1-3)GalNAc(b1-4)[Neu5Ac(a2-8)Neu5Ac(a2-3)]Gal(b1-4)Glc
# Procedure, shortened: as §1
# [10] = target: Neu5Ac(a2-8)Neu5Ac(a2-3)Gal(b1-4)Glc
# Procedure, shortened: as §1
# [11] = target: Neu5Ac(a2-8)Neu5Ac(a2-3)Gal(b1-4)GlcNAc
# Procedure, shortened: as §1
# [12] = target: Neu5Ac(a2-8)Neu5Ac(a2-3)[Gal(b1-3)GalNAc(b1-4)]Gal(b1-4)Glc
# Procedure, shortened: as §1
# [13] = target: Neu5Ac(a2-8)Neu5Ac(a2-3)[GalNAc(b1-4)]Gal(b1-4)Glc
# Procedure, shortened: as §1
# [14] = target: Neu5Ac(a2-8)Neu5Ac(a2-8)Neu5Ac
# Procedure, shortened: as §1
# [15] = target: Neu5Ac(a2-8)Neu5Ac(a2-8)Neu5Ac(a2-3)Gal(b1-4)Glc
# Procedure, shortened: as §1
# [16] = target: Neu5Ac(a2-8)Neu5Ac(a2-8)Neu5Ac(a2-3)[Gal(b1-3)GalNAc(b1-4)]Gal(b1-4)Glc
# Procedure, shortened: as §1
# [17] = target: Neu5Ac(a2-8)Neu5Ac(a2-8)Neu5Ac(a2-3)[GalNAc(b1-4)]Gal(b1-4)Glc
# Procedure, shortened: as §1
# [18] = target: Neu5Ac(a2-8)Neu5Ac(a2-8)Neu5Ac(a2-8)Neu5Ac(a2-3)[GalNAc(b1-4)]Gal(b1-4)Glc
# Procedure, shortened: as §1
# [19] = target: Neu5Ac(a2-8)Neu5Gc(a2-3)Gal(b1-4)GlcNAc
# Procedure, shortened: as §1
# [20] = target: Neu5Ac(b2-6)Gal(b1-4)GlcNAc
# Procedure, shortened: as §1
# Neu5Ac(b2-6)GalNAc = target: Neu5Ac(b2-6)GalNAc
# Procedure, shortened: as §1
# [21] = target: Neu5Ac9Ac(a2-3)Gal(b1-3)GlcNAc
# Procedure, shortened: as §1
# [22] = target: Neu5Ac9Ac(a2-3)Gal(b1-4)GlcNAc
# Procedure, shortened: as §1
# [23] = target: Neu5Ac9Ac(a2-6)Gal(b1-4)GlcNAc
# Procedure, shortened: as §1
# [24] = target: Neu5Gc(a2-3)Gal(b1-3)GlcNAc
# Procedure, shortened: as §1
# [25] = target: Neu5Gc(a2-3)Gal(b1-3)[Fuc(a1-4)]GlcNAc
# Procedure, shortened: as §1
# Neu5Gc(a2-3)Gal(b1-4)Glc = target: Neu5Gc(a2-3)Gal(b1-4)Glc
# Procedure, shortened: as §1
# [26] = target: Neu5Gc(a2-3)Gal(b1-4)GlcNAc
# Procedure, shortened: as §1
# [27] = target: Neu5Gc(a2-3)Gal(b1-4)GlcNAc(b1-3)Gal(b1-4)GlcNAc(b1-2)Man(a1-3)[Neu5Gc(a2-3)Gal(b1-4)GlcNAc(b1-3)Gal(b1-4)GlcNAc(b1-2)Man(a1-6)]Man(b1-4)GlcNAc(b1-4)GlcNAc
# Procedure, shortened: as §1
# [28] = target: Neu5Gc(a2-3)Gal(b1-4)[Fuc(a1-3)]GlcNAc
# Procedure, shortened: as §1
# [29] = target: Neu5Gc(a2-6)Gal(b1-4)GlcNAc
# Procedure, shortened: as §1
# Neu5Gc(a2-6)GalNAc = target: Neu5Gc(a2-6)GalNAc
# Procedure, shortened: as §1
# [30] = target: Neu5Gc(a2-8)Neu5Ac(a2-3)Gal(b1-4)GlcNAc
# Procedure, shortened: as §1
# [31] = target: Neu5Gc(a2-8)Neu5Gc(a2-3)Gal(b1-4)GlcNAc
# Procedure, shortened: as §1
# [32] = target: Neu5Gc(a2-8)Neu5Gc(a2-3)Gal(b1-4)GlcNAc(b1-3)Gal(b1-4)GlcNAc
# Procedure, shortened: as §1
# [33] = target: Neu5Gc(a2-8)Neu5Gc(a2-6)Gal(b1-4)GlcNAc
# Procedure, shortened: as §1
# [34] = target: Neu5Gc(b2-6)Gal(b1-4)GlcNAc
# Procedure, shortened: as §1
binder,measurement,setting,value
KILRGVCKKIMRTFLRRISKKILTGKK [C7A (Sus scrofa)],glycan array binding signal (z-score),[1],-0.436
same,glycan array binding signal (z-score),[2],-1.2
same,glycan array binding signal (z-score),[3],0.4
same,glycan array binding signal (z-score),Neu5Ac(a2-6)GalNAc,-1.98
same,glycan array binding signal (z-score),[4],-1.34
same,glycan array binding signal (z-score),[5],-0.017
same,glycan array binding signal (z-score),[6],-0.555
same,glycan array binding signal (z-score),[7],-1.44
same,glycan array binding signal (z-score),Neu5Ac(a2-8)Neu5Ac,-0.467
same,glycan array binding signal (z-score),[8],0.813
same,glycan array binding signal (z-score),[9],-0.48
same,glycan array binding signal (z-score),[10],-0.811
same,glycan array binding signal (z-score),[11],-1.16
same,glycan array binding signal (z-score),[12],-1.49
same,glycan array binding signal (z-score),[13],0.169
same,glycan array binding signal (z-score),[14],-0.334
same,glycan array binding signal (z-score),[15],-0.534
same,glycan array binding signal (z-score),[16],-0.693
same,glycan array binding signal (z-score),[17],0.151
same,glycan array binding signal (z-score),[18],0.219
same,glycan array binding signal (z-score),[19],-1.09
same,glycan array binding signal (z-score),[20],-0.121
same,glycan array binding signal (z-score),Neu5Ac(b2-6)GalNAc,-0.603
same,glycan array binding signal (z-score),[21],0.779
same,glycan array binding signal (z-score),[22],0.878
same,glycan array binding signal (z-score),[23],0.922
same,glycan array binding signal (z-score),[24],-0.028
same,glycan array binding signal (z-score),[25],-0.488
same,glycan array binding signal (z-score),Neu5Gc(a2-3)Gal(b1-4)Glc,-0.291
same,glycan array binding signal (z-score),[26],0.298
same,glycan array binding signal (z-score),[27],0.755
same,glycan array binding signal (z-score),[28],-0.7
same,glycan array binding signal (z-score),[29],-1.01
same,glycan array binding signal (z-score),Neu5Gc(a2-6)GalNAc,-0.346
same,glycan array binding signal (z-score),[30],-1.99
same,glycan array binding signal (z-score),[31],-1.02
same,glycan array binding signal (z-score),[32],-0.229
same,glycan array binding signal (z-score),[33],-3.08
same,glycan array binding signal (z-score),[34],0.66

# Reformatted: entries from further up
binder | measurement | setting | value
KILRGVCKKIMRTFLRRISKKILTGKK [C7A (Sus scrofa)] | glycan array binding signal (z-score) | [21] | 0.779
same | glycan array binding signal (z-score) | [22] | 0.878
